Patent publication US20210052703A1 (SHANGHAI BENEMAE PHARMACEUTICAL CORPORATION, priority 2018, published 2021)
Like-named read-outs stand apart in the source and are kept apart here.

Columns and labels:
[1] = tested on: male diet induced obesity (DIO) mice; conditions: X ± SE
Sprague-Dawley (SD) rats = experiment: stomach emptying in male and female SD rats, various dosages (Example 6); conditions: X ± SE

Structure (SMILES): CC[C@H](C)[C@H](NC(=O)[C@H](Cc1ccccc1)NC(=O)[C@H](CCC(=O)O)NC(=O)[C@H](CCCCN)NC(=O)[C@H](C)NC(=O)[C@H](C)NC(=O)[C@H](CCC(N)=O)NC(=O)CNC(=O)[C@H](CCC(=O)O)NC(=O)[C@H](CC(C)C)NC(=O)[C@H](Cc1ccc(O)cc1)NC(=O)[C@H](CO)NC(=O)[C@H](CO)NC(=O)[C@@H](NC(=O)[C@H](CC(=O)O)NC(=O)[C@H](CO)NC(=O)[C@@H](NC(=O)[C@H](Cc1ccccc1)NC(=O)[C@@H](NC(=O)CNC(=O)[C@H](CCC(=O)O)NC(=O)[C@H](C)NC(=O)[C@@H](N)Cc1c[nH]cn1)[C@@H](C)O)[C@@H](C)O)C(C)C)C(=O)N[C@@H](C)C(=O)N[C@@H](Cc1c[nH]c2ccccc12)C(=O)N[C@@H](CC(C)C)C(=O)N[C@H](C(=O)N[C@@H](CCCCN)C(=O)NCC(=O)N[C@@H](CCCNC(=N)N)C(=O)O)C(C)C [Beinaglutide]
- Entire Length of Intestine ([1]; 15 μg/kg): 43.57 ± 0.87 cm
- Entire Length of Intestine ([1]; 20 μg/kg): 41.36 ± 1.15 cm
- Entire Length of Intestine ([1]; 25 μg/kg): 42.14 ± 1.23 cm
- Entire Length of Intestine ([1]; 50 μg/kg): 42.00 ± 0.53 cm
- Entire Length of Intestine ([1]; 75 μg/kg): 42.86 ± 0.77 cm
- Entire Length of Intestine ([1]; 100 μg/kg): 42.71 ± 0.89 cm
- Entire Length of Intestine (Sprague-Dawley (SD) rats; female rats, 10 μg/kg subcutaneous): 106.51 ± 1.64 cm
- Entire Length of Intestine (Sprague-Dawley (SD) rats; female rats, 12.5 μg/kg subcutaneous): 105.72 ± 0.42 cm
- Entire Length of Intestine (Sprague-Dawley (SD) rats; female rats, 15 μg/kg subcutaneous): 107.88 ± 2.05 cm
- Entire Length of Intestine (Sprague-Dawley (SD) rats; female rats, 30 μg/kg subcutaneous): 106.90 ± 1.36 cm
- Entire Length of Intestine (Sprague-Dawley (SD) rats; female rats, 45 μg/kg subcutaneous): 107.48 ± 1.06 cm
- Entire Length of Intestine (Sprague-Dawley (SD) rats; female rats, 60 μg/kg subcutaneous): 108.24 ± 1.42 cm
- Entire Length of Intestine (Sprague-Dawley (SD) rats; male rats, 10 μg/kg subcutaneous): 108.83 ± 2.57 cm
- Entire Length of Intestine (Sprague-Dawley (SD) rats; male rats, 12.5 μg/kg subcutaneous): 108.98 ± 2.28 cm
- Entire Length of Intestine (Sprague-Dawley (SD) rats; male rats, 15 μg/kg subcutaneous): 108.15 ± 2.21 cm
- Entire Length of Intestine (Sprague-Dawley (SD) rats; male rats, 30 μg/kg subcutaneous): 111.63 ± 1.57 cm
- Entire Length of Intestine (Sprague-Dawley (SD) rats; male rats, 45 μg/kg subcutaneous): 108.99 ± 2.37 cm
- Entire Length of Intestine (Sprague-Dawley (SD) rats; male rats, 60 μg/kg subcutaneous): 111.16 ± 1.49 cm
